PubChem BioAssay AID1259424 – University of Nebraska Medical Center, 2018

- Assay: 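Find knockdowns that reproduce the expression shifts seen after KSR1 loss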 (primary screen)
- Cells: human HCT116 colon cancer cells
- Knock-down reagent: siRNA pool against human genes, 50 nM
- Detection: 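Log2 levels of six mRNAs (branched-DNA multiplex), adjusted by two reference genes and the non-targeting median, then scored against the average KSR1 knockdown pattern as Pearson r and euclidean distance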
- Reading the numbers: mean correlation with KSR1 profile and KSR1 correlation: higher = expression change more like KSR1 knockdown; mean distance from KSR1 profile: higher = expression change less like KSR1 knockdown
This is one part, drawn at random, of about 14,000 reagents. 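Higher correlation or smaller distance means closer resemblance to KSR1 loss; control wells, including KSR1 knockdowns, recur on many plates.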 Not given: the time to read-out.

target gene	PubChem SID	mean correlation with KSR1 profile	mean distance from KSR1 profile	KSR1 correlation, replicate 1	KSR1 correlation, replicate 2	KSR1 correlation, replicate 3
PLAAT2	SID364000607	0.213	2.8	0.462	0.286	0.0517
TUBB2A	SID363992366	-0.0183	2.21	-0.19	-0.00736	0.359
NDUFB1	SID363995517	-0.435	1.83	-0.266	-0.333	-0.39
HGFAC	SID363992786	0.298	2.84	0.24	0.309	0.265
PTHLH	SID363993976	-0.668	3.17	-0.583	-0.518	-0.805
KMT2E	SID364001176	0.319	1.22	0.316	-0.221	0.365
UCN	SID363994466	0.14	2.75	0.231	0.114	0.0414
CALB1	SID363995873	-0.398	2.12	-0.471	-0.268	-0.399
TMUB1	SID364003619	0.448	3.74	0.277	0.483	0.281
SERPINF2	SID363992218	0.167	2.23	-0.166	0.426	0.382
TMLHE	SID364000866	-0.355	2.7	-0.151	-0.443	-0.492
TBKBP1	SID364005534	-0.597	2.47	-0.508	-0.677	-0.483
SPRR1A	SID363996843	0.174	3.13	0.15	0.141	0.189
MACO1	SID364000872	-0.275	1.94	-0.293	-0.47	-0.419
FAM53B	SID363999016	-0.531	1.36	-0.252	-0.249	-0.634
DDX25	SID363998388	-0.173	3.34	-0.378	-0.364	-0.4
EGLN1	SID364002290	-0.386	4.04	-0.494	-0.535	0.00218
PIGK	SID363996384	-0.382	2.67	-0.289	-0.468	-0.378
FOLR1	SID363992092	-0.652	3.56	-0.581	-0.831	-0.306
CATSPERG	SID364002072	-0.183	3.34	-0.175	-0.0513	-0.244
MTHFR	SID363996819	0.0538	2.04	0.118	-0.115	0.0109
PIP5KL1	SID364004827	-0.115	2.21	0.218	-0.128	-0.254
SERTAD2	SID364005562	0.529	1.38	0.574	0.546	0.448
OPRL1	SID363992198	0.626	1.67	0.63	0.617	0.69
ERAP1	SID364000109	0.0253	1.75	-0.178	0.253	-0.0922
OBI1	SID364002862	0.559	1.37	0.67	0.494	0.342
ELOVL6	SID364002740	0.167	1.3	0.00444	-0.0569	0.279
GPSM3	SID364002335	0.609	2.25	0.357	0.371	0.614
NEFM	SID363996292	-0.149	0.842	0.343	0.264	-0.325
ISYNA1	SID364000066	-0.385	3.14	-0.284	-0.38	-0.417
ZNF80	SID363997847	-0.197	1.96	-0.203	-0.189	-0.114
SUPT3H	SID363994679	-0.24	2.03	-0.024	-0.148	-0.258
TIRAP	SID364004411	-0.4	1.78	-0.342	-0.225	-0.517
RASA2	SID363997303	-0.617	2.52	-0.654	-0.53	-0.671
REEP4	SID364003332	-0.176	2.38	-0.623	-0.21	-0.0927
UBE2N	SID363994463	-0.264	1.99	-0.0809	-0.382	-0.435
GPR19	SID363996974	0.18	3.09	0.205	0.175	0.121
CLCN1	SID363991420	-0.599	3.56	-0.526	-0.434	-0.656
ZNF180	SID363998380	0.156	2.32	0.259	0.208	0.0554
BMPR1A	SID363995318	-0.238	2.7	-0.357	-0.332	-0.214
PTPN18	SID363998793	-0.0983	2.31	-0.162	-0.101	-0.221
INMT	SID363997544	-0.339	3.68	-0.16	-0.457	-0.273
GPLD1	SID363992761	-0.00556	2.04	-0.205	0.0111	-0.00343
METTL8	SID364003043	0.638	1.88	0.703	0.714	0.59
PICK1	SID363998292	0.52	1.82	0.694	0.52	0.162
SBNO2	SID363999229	0.413	1.72	0.381	0.212	0.499
SLC41A3	SID364000568	-0.428	4.08	-0.19	-0.535	-0.411
UBE2V2	SID363994464	-0.478	2.93	-0.373	-0.543	-0.596
PCDHGB6	SID364001253	-0.378	2.04	-0.533	-0.52	-0.293
CUL5	SID363994577	-0.314	1.73	-0.526	-0.155	-0.405

Targets listed so far whose target name begins with M or m (3):
target gene	PubChem SID	mean correlation with KSR1 profile	mean distance from KSR1 profile	KSR1 correlation, replicate 1	KSR1 correlation, replicate 2	KSR1 correlation, replicate 3
MACO1	SID364000872	-0.275	1.94	-0.293	-0.47	-0.419
MTHFR	SID363996819	0.0538	2.04	0.118	-0.115	0.0109
METTL8	SID364003043	0.638	1.88	0.703	0.714	0.59
